Structures are written as SMILES. The list shows a part of the results. Many values rest on one well or one pass, so single values are uncertain.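 The apoptosis fraction was the count of cleaved-PARP antibody-stained nuclei relative to all DNA-stained nuclei, imaged in 1,536-well plates. Screening doses were set so most cells survived, and baseline and induced cleaved-PARP levels vary greatly across cell lines.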

For the experiment, the system named is WM1745. Put plainly: cleaved PARP positive nuclei fraction relative to DMSO control; melanoma cells; higher = more apoptosis. The settings on record: library dose: low library concentration; 72 h.
As for `Nc1ncn([C@H]2C[C@H](O)[C@@H](CO)O2)c(=O)n1` [decitabine] + COC(=O)c1sccc1S(=O)(=O)Nc1ccc(Nc2ccccc2)cc1OC [GSK0660] (first compound 0.1 µM, partner dose 1 µM), the “cleaved PARP positive nuclei fraction” value was found to be 91.2%.

For `Cc1cc(Nc2cc(N3CCN(C)CC3)nc(/C=C/c3ccccc3)n2)n[nH]1` + Cc1cc(N2CCOCC2)cc2[nH]c(-c3c(NC[C@@H](O)c4cccc(Cl)c4)cc[nH]c3=O)nc12 [BMS536924] (first compound 0.04 µM, partner dose 0.2 µM), the “cleaved PARP positive nuclei fraction” value came to 149%. With `Cn1c(=O)n(-c2ccc(C(C)(C)C#N)cc2)c2c3cc(-c4cnc5ccccc5c4)ccc3ncc21` + NC(=O)Nc1cc(-c2cccc(F)c2)sc1C(=O)N[C@H]1CCCNC1 [AZD7762] (first compound 0.004 µM, partner dose 0.02 µM), the “cleaved PARP positive nuclei fraction” value was found to be 105%. Next, `C=C(c1ccc(C(=O)O)cc1)c1cc2c(cc1C)C(C)(C)CCC2(C)C` [Bexarotene] + O=C(Nc1ccccc1)c1cc([N+](=O)[O-])ccc1Cl [GW9662] (first compound 2 µM, partner dose 2 µM): 94.2%; `CNC(=O)c1cc(Oc2ccc(NC(=O)Nc3ccc(Cl)c(C(F)(F)F)c3)cc2)ccn1` [sorafenib] + COC(=O)c1sccc1S(=O)(=O)Nc1ccc(Nc2ccccc2)cc1OC [GSK0660] (first compound 0.4 µM, partner dose 1 µM): 99.1%.

As to `CNC(=O)c1cc(Oc2ccc(NC(=O)Nc3ccc(Cl)c(C(F)(F)F)c3)cc2)ccn1` [sorafenib] + CCCCCCCCCCCC1=C(O)C(=O)C=C(O)C1=O [Embelin] (first compound 0.4 µM, partner dose 1.2 µM), the “cleaved PARP positive nuclei fraction” value stood at 95.2%. As for `CS(=O)(=O)CCNCc1ccc(-c2ccc3ncnc(Nc4ccc(OCc5cccc(F)c5)c(Cl)c4)c3c2)o1` [lapatinib] + CN(C)S(=O)(=O)c1ccc2c(c1)/C(=C/c1cc3c([nH]1)CCCC3)C(=O)N2 [SU6656] (first compound 0.8 µM, partner dose 0.4 µM), the “cleaved PARP positive nuclei fraction” value came to 92.1%. The result for `C[C@@H](Oc1cc(-c2cnn(C3CCNCC3)c2)cnc1N)c1c(Cl)ccc(F)c1Cl` [Crizotinib] + CCCCCCCCCCCC1=C(O)C(=O)C=C(O)C1=O [Embelin] (first compound 0.2 µM, partner dose 1.2 µM) reads 82.6%. Next, `Nc1nc(F)nc2c1ncn2[C@@H]1O[C@H](CO)[C@@H](O)[C@@H]1O` [fludarabine] + Cc1cc(N2CCOCC2)cc2[nH]c(-c3c(NC[C@@H](O)c4cccc(Cl)c4)cc[nH]c3=O)nc12 [BMS536924] (first compound 0.2 µM, partner dose 0.2 µM): 98.5%; `Cc1cc(Nc2cc(N3CCN(C)CC3)nc(/C=C/c3ccccc3)n2)n[nH]1` + COc1ccc(COc2ccc(Cc3cnc(N)nc3N)cc2OC)cc1 [GW2580] (first compound 0.04 µM, partner dose 1 µM): 102%. Next, `CNC(=O)c1cc(Oc2ccc(NC(=O)Nc3ccc(Cl)c(C(F)(F)F)c3)cc2)ccn1` [sorafenib] + NCC(=O)Nc1ccc(-n2nc(C(F)(F)F)cc2-c2ccc3c(ccc4ccccc43)c2)cc1 [OSU03012] (first compound 0.4 µM, partner dose 1 µM): 206%; `Cc1cc(Nc2cc(N3CCN(C)CC3)nc(/C=C/c3ccccc3)n2)n[nH]1` + OCCn1cc(-c2cnc3nnn(Cc4ccc5ncccc5c4)c3n2)cn1 [PF04217903] (first compound 0.04 µM, partner dose 1 µM): 93.2%.

`Nc1nc(F)nc2c1ncn2[C@@H]1O[C@H](CO)[C@@H](O)[C@@H]1O` [fludarabine] + CCc1ccc(CCOc2ccc(CC3SC(=O)NC3=O)cc2)nc1 [pioglitazone] (first compound 0.2 µM, partner dose 2 µM): the “cleaved PARP positive nuclei fraction” value came out at 89.8%. The result for `CS(=O)(=O)CCNCc1ccc(-c2ccc3ncnc(Nc4ccc(OCc5cccc(F)c5)c(Cl)c4)c3c2)o1` [lapatinib] + OCCn1cc(-c2cnc3nnn(Cc4ccc5ncccc5c4)c3n2)cn1 [PF04217903] (first compound 0.8 µM, partner dose 1 µM) reads 447%; that for `CNC(=O)c1cc(Oc2ccc(NC(=O)Nc3ccc(Cl)c(C(F)(F)F)c3)cc2)ccn1` [sorafenib] + Cc1cc([N+](=O)[O-])ccc1NS(=O)(=O)c1cc(Cl)ccc1Cl [FH535] (first compound 0.4 µM, partner dose 1 µM), 101%.

Source of the values: the supplement of paper PMC4604168 (melanoma cell lines).
